Results are given in words; binding and its absence hold for the method and conditions named. For some assays here: In cells and extracts the contact can be indirect. For some assays here: Binding calls can cover weak binding; strength is not graded here.
B1: WIPI2 (endogenous, HeLa) (protein, UniProt Q9Y4P8 1-454)
chain: MNLASQSGEAGAGQLLFANFNQDNTEVKGASRAAGLGRRAVVWSLAVGSKSGYKFFSLSSVDKLEQIYECTDTEDVCIVERLFSSSLVAIVSLKAPRKLKVCHFKKGTEICNYSYSNTILAVKLNRQRLIVCLEESLYIHNIRDMKVLHTIRETPPNPAGLCALSINNDNCYLAYPGSATIGEVQVFDTINLRAANMIPAHDSPLAALAFDASGTKLATASEKGTVIRVFSIPEGQKLFEFRRGVKRCVSICSLAFSMDGMFLSASSNTETVHIFKLETVKEKPPEEPTTWTGYFGKVLMASTSYLPSQVTEMFNQGRAFATVRLPFCGHKNICSLATIQKIPRLLVGAADGYLYMYNLDPQEGGECALMKQHRLDGSLETTNEILDSASHDCPLVTQTYGAAAGKGTYVPSSPTRLAYTDDLGAVGGACLEDEASALRLDEDSEHPPMILRTD

The chains behind the UniProt entries cited, without tags or fusion partners. Where a name states a change or a piece, a line headed by the entry shows the natural chain unless it says otherwise. A line that says so, or that is headed by a name, gives the form on record, which may keep a tag or linker. Residues count along the entry.
UniProt Q9BXK5: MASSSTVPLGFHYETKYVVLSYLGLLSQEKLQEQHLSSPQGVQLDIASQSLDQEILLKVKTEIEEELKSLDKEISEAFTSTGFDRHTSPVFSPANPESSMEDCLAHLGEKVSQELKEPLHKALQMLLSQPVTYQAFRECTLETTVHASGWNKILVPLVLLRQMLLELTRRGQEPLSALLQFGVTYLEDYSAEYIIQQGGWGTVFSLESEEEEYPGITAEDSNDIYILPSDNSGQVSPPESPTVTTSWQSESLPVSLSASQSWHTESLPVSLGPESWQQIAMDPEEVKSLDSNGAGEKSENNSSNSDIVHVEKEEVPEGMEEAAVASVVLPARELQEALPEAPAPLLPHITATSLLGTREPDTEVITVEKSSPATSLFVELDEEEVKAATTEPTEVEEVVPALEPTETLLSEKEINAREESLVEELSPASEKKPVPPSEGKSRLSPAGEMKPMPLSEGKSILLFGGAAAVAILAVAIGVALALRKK
GFP-FIP200 C-terminal region (CTR) (residues 1429–1591) (Q8TDY2-2, form named): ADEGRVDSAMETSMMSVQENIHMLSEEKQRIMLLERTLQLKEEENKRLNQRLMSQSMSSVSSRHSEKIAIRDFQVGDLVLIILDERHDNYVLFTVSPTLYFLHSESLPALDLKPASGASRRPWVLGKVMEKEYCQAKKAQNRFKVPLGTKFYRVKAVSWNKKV

Assays:
[1] = target: BCL2L13-GST with mutated LIR/FIR motifs (human) (UniProt Q9BXK5); assay: microscopy-based bead assay; glutathione beads coated with GST-tagged cargo receptors (5 uM), GFP-FIP200 CTR (1429-1591) as prey, 30 min; 25 mM Tris-HCl pH 7.4, 150 mM NaCl, 1 mM DTT; confocal imaging; both purified
[2] = target: BNIP3(1–158aa)-GST (human); assay: pull-down; beads coated with GST, NIX-GST or BNIP3-GST, incubated overnight with HeLa cell lysate; SDS-PAGE and western blot for WIPI proteins; only the target purified

Row | binding [1] | binding [2] | Molecule
1 | no binding |  | GFP-FIP200 C-terminal region (CTR) (residues 1429–1591) (from UniProt Q8TDY2-2 1429-1591) (domain or fragment)
2 |  | binds | B1

Source: publication doi:10.1101/2024.08.28.609967 (bioRxiv, 2024)
